Source: patent US4055640A, “Compositions and methods for controlling the growth of bacteria, fungi and algae using certain derivatives of N-(2,2-dichlorovinyl)salicylamides” (Nippon Kayaku Co., Ltd., priority 1975, dated 1977)
Counter-ions that a name gives are not always drawn. At least one read-out could not be matched to a standard name with certainty.

test system: seedling blight of rice plant (pathogen Fusarium sp. and Rhizoctonia sp.); assay: Exterminating test on seedling blight of rice plant (Experimental Example 1); type: in vivo; conditions: 0.25g/box a.i., 5% dust mixed with soil
Procedure: Exterminating test on seedling blight of rice plant Nursery boxes (60 × 30 × 3 cm) were filled with soil which were contaminated with pathogen (Fusarium sp. and Rhizoctonia sp.) The dust in which the present compound was contained in a ratio of 5% by weight was added in the box in a ratio of 5 grams per box and mixed well with soil. Thereafter, seeds of rice plant (variety: Nihonbare) were sowed in drills at a rate of 0.3 liter per box and grown up in a lighting chamber at 17° C. After 7 days from the sowing, the boxes were carried out in the field. Furthermore, 10 days thereafter the observations were made. Four percent (4%) dust of 3-hydroxy-5-methyl isoxazol (hereinafter referred to as hydroxyisoxazol) on the market was used as a control and tested by the same method. The test results are shown in Table 2 with a "percentage of healthy seedlings". The percentage of healthy seedlings was calculated as follows: […]

Row | Structure (SMILES) | Percentage of healthy seedlings [%]
1 | O=C(NC=C(Cl)Cl)c1ccccc1O [Compound No. 20, sodium salt of N-(β,β-dichlorovinyl) salicylamide] | 74.9
2 | O=C(NC=C(Cl)Cl)c1cc(Cl)ccc1O [compound 30] | 71.4
3 | O=C(NC=C(Cl)Cl)c1cc(Br)ccc1O [compound 22] | 69.9
4 | O=C(NC=C(Cl)Cl)c1cc(Cl)cc(Cl)c1O [compound 34] | 72.2
5 | O=C(NC=C(Cl)Cl)c1cc(Cl)ccc1O [Compound No. 21, sodium salt of N-(2'-2'-dichlorovinyl)-5-chlorosalicylamide] | 70.7
6 | O=C(NC=C(Cl)Cl)c1ccccc1O [Compound No. 23] | 70.8
